Test results: the supplement of paper PMC4604168 (melanoma cell lines)
The list shows a part of the results. Single values are uncertain, as repeats are few or missing.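 Imaging used 1,536-well plates; nuclei positive for cleaved PARP by antibody were divided by total DNA-stained nuclei to yield the apoptosis fraction. Doses for screening kept most cells viable, and cell lines differ markedly in resting and induced cleaved-PARP levels.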

What was measured:
Assay in all cases: cleaved PARP positive nuclei fraction relative to DMSO control; melanoma cells; higher = more apoptosis
Details in all cases: library dose: low library concentration; 72 h
[1] = system: A101D
[2] = system: A2058
[3] = system: A375
[4] = system: C32
[5] = system: CBRC008 (line from a melanoma biopsy)
[6] = system: CBRC013 (line from a melanoma biopsy)
[7] = system: CBRC014 (line from a melanoma biopsy)
[8] = system: CBRC016 (line from a melanoma biopsy)
[9] = system: CBRC017 (line from a melanoma biopsy)
[10] = system: COLO792
[11] = system: COLO800
[12] = system: COLO829
[13] = system: G361
[14] = system: IPC-298
[15] = system: IST-MEL1
[16] = system: LOXIMVI
[17] = system: MEL-HO
[18] = system: 501Mel
[19] = system: LB2518-MEL
[20] = system: CBRC034 (line from a melanoma biopsy)

SMILES	cleaved PARP positive nuclei fraction [1]	cleaved PARP positive nuclei fraction [2]	cleaved PARP positive nuclei fraction [3]	cleaved PARP positive nuclei fraction [4]	cleaved PARP positive nuclei fraction [5]	cleaved PARP positive nuclei fraction [6]	cleaved PARP positive nuclei fraction [7]	cleaved PARP positive nuclei fraction [8]	cleaved PARP positive nuclei fraction [9]	cleaved PARP positive nuclei fraction [10]	cleaved PARP positive nuclei fraction [11]	cleaved PARP positive nuclei fraction [12]	cleaved PARP positive nuclei fraction [13]	cleaved PARP positive nuclei fraction [14]	cleaved PARP positive nuclei fraction [15]	cleaved PARP positive nuclei fraction [16]	cleaved PARP positive nuclei fraction [17]	cleaved PARP positive nuclei fraction [18]	cleaved PARP positive nuclei fraction [19]	cleaved PARP positive nuclei fraction [20]
CCCCCCCCc1ccc(CCC(N)(CO)CO)cc1 [fingolimod] + CC(C)(C)c1cnc(CSc2cnc(NC(=O)C3CCNCC3)s2)o1 [SNS-032] (first compound 2 µM, partner dose 0.01 µM)	115%	62.9%	172%	121%	76.6%	126%	93.5%	47.3%	173%	67.6%	163%	158%	108%	43.2%	48%	344%	68.1%	–	–	–
Cn1cnc2c(F)c(Nc3ccc(Br)cc3Cl)c(C(=O)NOCCO)cc21 [selumetinib] + CC(C)CCN1c2nc(Nc3cc(F)c(O)c(F)c3)ncc2N(C)C(=O)C1C [BID1870] (first compound 0.015 µM, partner dose 0.2 µM)	96.8%	187%	–	97.3%	148%	–	127%	70.6%	102%	231%	21%	49.9%	129%	77.6%	57%	74.5%	–	129%	220%	–
Cn1sc(=O)n(Cc2ccccc2)c1=O + N#Cc1c(O)c2c(-c3ccc(-c4ccccc4O)cc3)csc2[nH]c1=O [A769662] (first compound 0.4 µM, partner dose 2 µM)	27%	67.2%	–	105%	99.8%	–	82.7%	36.7%	97.7%	173%	89.4%	44.1%	88.4%	116%	153%	136%	–	31.3%	44%	–
COc1ccc(C2=N[C@@H](c3ccc(Cl)cc3)[C@@H](c3ccc(Cl)cc3)N2C(=O)N2CCNC(=O)C2)c(OC(C)C)c1 [Nutlin-3] + O=c1cc(-c2cccc3c2Sc2ccccc2S3)oc(N2CCOCC2)c1 [KU55933] (first compound 0.1 µM, partner dose 1 µM)	47.4%	67.9%	–	86.6%	61.6%	–	125%	101%	125%	120%	70.1%	145%	118%	31.4%	85.9%	70%	–	68.8%	62%	–
C[C@@H](N)c1ccc(C(=O)Nc2ccnc3[nH]ccc23)cc1 + CCN(CC)CCNC(=O)c1c(C)[nH]c(/C=C2\C(=O)Nc3ccc(F)cc32)c1C [sunitinib] (first compound 0.4 µM, partner dose 0.4 µM)	175%	299%	116%	80.2%	137%	–	96.7%	140%	123%	119%	185%	72.4%	226%	167%	94.3%	142%	99.7%	–	–	155%
C[C@@H](N)c1ccc(C(=O)Nc2ccnc3[nH]ccc23)cc1 + O=c1cc(-c2cccc3c2Sc2ccccc2S3)oc(N2CCOCC2)c1 [KU55933] (first compound 0.4 µM, partner dose 1 µM)	27.7%	180%	–	209%	68.2%	–	108%	63.7%	139%	145%	37.8%	52.1%	207%	147%	136%	105%	–	123%	142%	–
CCN(CC)CCNC(=O)c1c(C)[nH]c(/C=C2\C(=O)Nc3ccc(F)cc32)c1C [sunitinib] + COc1ccc(COc2ccc(Cc3cnc(N)nc3N)cc2OC)cc1 [GW2580] (first compound 0.4 µM, partner dose 1 µM)	44.4%	78.3%	–	42%	126%	–	95.7%	84.7%	111%	129%	68%	82.7%	67.6%	133%	115%	135%	–	103%	68.3%	–
CS(=O)(=O)c1ccc(C(=O)Nc2ccc(Cl)c(-c3ccccn3)c2)c(Cl)c1 [vismodegib] + CN(NC(=O)CC(=O)NN(C)C(=S)c1ccccc1)C(=S)c1ccccc1 [STA4783] (first compound 1 µM, partner dose 0.006 µM)	98.5%	119%	2840%	74.7%	1220%	181%	525%	180%	168%	212%	220%	304%	140%	180%	187%	222%	132%	–	–	–
CN(c1ncccc1CNc1nc(Nc2ccc3c(c2)CC(=O)N3)ncc1C(F)(F)F)S(C)(=O)=O + Oc1nc(-c2ccc(C(F)(F)F)cc2)nc2c1CSCC2 [XAV939] (first compound 0.08 µM, partner dose 2 µM)	36.8%	456%	–	105%	107%	–	85.7%	42.4%	168%	136%	66.3%	78.8%	89.5%	45.8%	169%	51.1%	–	124%	68.3%	–
CC1(C)CCC(c2ccc(Cl)cc2)=C(CN2CCN(c3ccc(C(=O)NS(=O)(=O)c4ccc(N[C@H](CCN5CCOCC5)CSc5ccccc5)c(S(=O)(=O)C(F)(F)F)c4)cc3)CC2)C1 + COC(=O)c1sccc1S(=O)(=O)Nc1ccc(Nc2ccccc2)cc1OC [GSK0660] (first compound 0.4 µM, partner dose 1 µM)	67.6%	124%	–	129%	317%	–	431%	249%	530%	342%	66.5%	60.7%	183%	97.5%	398%	126%	–	60.9%	86.7%	–
CCN(CC)CCNC(=O)c1c(C)[nH]c(/C=C2\C(=O)Nc3ccc(F)cc32)c1C [sunitinib] + CC1(C)NC(=O)N(c2ccc([N+](=O)[O-])c(C(F)(F)F)c2)C1=O [nilutamide] (first compound 0.4 µM, partner dose 1 µM)	77.7%	135%	40.8%	50.2%	117%	245%	85.8%	144%	256%	105%	37.7%	58.7%	91.8%	44.9%	114%	140%	65.2%	–	–	–
C[C@@H](N)c1ccc(C(=O)Nc2ccnc3[nH]ccc23)cc1 + CC(C)CCN1c2nc(Nc3cc(F)c(O)c(F)c3)ncc2N(C)C(=O)C1C [BID1870] (first compound 0.4 µM, partner dose 0.2 µM)	51.1%	273%	–	181%	174%	–	132%	118%	120%	119%	108%	93.1%	111%	141%	142%	454%	–	72.3%	265%	–
CC1(C)CCC(c2ccc(Cl)cc2)=C(CN2CCN(c3ccc(C(=O)NS(=O)(=O)c4ccc(N[C@H](CCN5CCOCC5)CSc5ccccc5)c(S(=O)(=O)C(F)(F)F)c4)cc3)CC2)C1 + Nc1cccc2c1CN(C1CCC(=O)NC1=O)C2=O [lenalidomide] (first compound 0.4 µM, partner dose 1 µM)	85%	45.9%	188%	115%	646%	–	330%	360%	375%	227%	191%	218%	177%	601%	83.8%	284%	210%	–	–	166%
C[C@]1(O)C[C@@H](c2nc(-c3ccc4ccc(-c5ccccc5)nc4c3)c3c(N)nccn32)C1 + C[C@@H]1CCN(C(=O)CC#N)C[C@@H]1N(C)c1ncnc2[nH]ccc12 [CP690550] (first compound 0.4 µM, partner dose 1 µM)	41.9%	48.1%	106%	98.3%	67.2%	144%	86.2%	54%	117%	132%	167%	63%	91.2%	139%	94.1%	153%	126%	–	–	–
CS(=O)(=O)c1ccc(C(=O)Nc2ccc(Cl)c(-c3ccccn3)c2)c(Cl)c1 [vismodegib] + O=C(O)C(=O)Nc1sc2c(c1C(=O)O)CCNC2 [TCS401] (first compound 1 µM, partner dose 1.66667 µM)	25.8%	76.9%	–	33.8%	311%	–	86.7%	144%	61.4%	45.6%	119%	162%	77.4%	45.6%	130%	102%	–	108%	133%	–
C[C@]1(O)C[C@@H](c2nc(-c3ccc4ccc(-c5ccccc5)nc4c3)c3c(N)nccn32)C1 + COc1cc(N2CCC(N3CCN(C)CC3)CC2)ccc1Nc1ncc(Cl)c(Nc2ccccc2S(=O)(=O)C(C)C)n1 [NVP-TAE684] (first compound 0.4 µM, partner dose 0.08 µM)	45.1%	78%	–	86.2%	194%	–	166%	66.2%	82%	93.5%	135%	53.4%	105%	95.5%	84.3%	98.2%	–	144%	123%	–
CCCCCCCCc1ccc(CCC(N)(CO)CO)cc1 [fingolimod] + O=C(CCCCCCC(=O)Nc1ccccc1)NO [vorinostat] (first compound 2 µM, partner dose 0.08 µM)	70.2%	39.6%	105%	91.2%	70.4%	85.2%	77.6%	49.5%	99.1%	64.1%	171%	180%	71.8%	86%	85.2%	50.9%	187%	–	–	–
CC1(C)CCC(c2ccc(Cl)cc2)=C(CN2CCN(c3ccc(C(=O)NS(=O)(=O)c4ccc(N[C@H](CCN5CCOCC5)CSc5ccccc5)c(S(=O)(=O)C(F)(F)F)c4)cc3)CC2)C1 + O=C(Nc1cccc(Cl)c1)Nc1ncc(CCNc2ncnc3ccsc23)s1 [SNS314] (first compound 0.4 µM, partner dose 0.0008 µM)	165%	207%	170%	365%	717%	161%	435%	472%	378%	269%	107%	172%	67.2%	220%	134%	55%	78.3%	–	–	–

An excerpt of these results, with bars between the fields.
SMILES | cleaved PARP positive nuclei fraction [1] | cleaved PARP positive nuclei fraction [2] | cleaved PARP positive nuclei fraction [3] | cleaved PARP positive nuclei fraction [4] | cleaved PARP positive nuclei fraction [5] | cleaved PARP positive nuclei fraction [6] | cleaved PARP positive nuclei fraction [7] | cleaved PARP positive nuclei fraction [8] | cleaved PARP positive nuclei fraction [9] | cleaved PARP positive nuclei fraction [10] | cleaved PARP positive nuclei fraction [11] | cleaved PARP positive nuclei fraction [12] | cleaved PARP positive nuclei fraction [13] | cleaved PARP positive nuclei fraction [14] | cleaved PARP positive nuclei fraction [15] | cleaved PARP positive nuclei fraction [16] | cleaved PARP positive nuclei fraction [17] | cleaved PARP positive nuclei fraction [18] | cleaved PARP positive nuclei fraction [19] | cleaved PARP positive nuclei fraction [20]
C[C@@H](N)c1ccc(C(=O)Nc2ccnc3[nH]ccc23)cc1 + O=c1cc(-c2cccc3c2Sc2ccccc2S3)oc(N2CCOCC2)c1 [KU55933] (first compound 0.4 µM, partner dose 1 µM) | 27.7% | 180% | – | 209% | 68.2% | – | 108% | 63.7% | 139% | 145% | 37.8% | 52.1% | 207% | 147% | 136% | 105% | – | 123% | 142% | –
C[C@@H](N)c1ccc(C(=O)Nc2ccnc3[nH]ccc23)cc1 + CC(C)CCN1c2nc(Nc3cc(F)c(O)c(F)c3)ncc2N(C)C(=O)C1C [BID1870] (first compound 0.4 µM, partner dose 0.2 µM) | 51.1% | 273% | – | 181% | 174% | – | 132% | 118% | 120% | 119% | 108% | 93.1% | 111% | 141% | 142% | 454% | – | 72.3% | 265% | –
